PubChem BioAssay AID686943 – Drosophila RNAi Screening Center – 2013
The screen tested about 23,000 reagents; below is a random part of those with a known target gene and a result. 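Extra replicates exist only for a retested subset of genes; insulin dose and duration not given; both raised and lowered dpERK matter.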 A plus sign joins genes that one reagent is predicted to hit. Reagent sequences are not shown. Not stated in the record: the amount of reagent, the time to read-out.

- Purpose: 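Search across the genome for regulators of signalling from receptor tyrosine kinase to ERK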 (primary screen)
- Cells: Drosophila S2R+ haemocyte-like cells expressing YFP-tagged ERK (Rolled)
- Reagents: long dsRNA against Drosophila genes
- Challenge: insulin stimulation versus unstimulated cells; dose and duration not given
- Measured: 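Antibody staining for doubly phosphorylated ERK divided by ERK-YFP signal, as plate z-scores, in insulin-treated and untreated cells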
- Direction: replicate 1, z-score of dpERK with insulin and replicate 2, z-score of dpERK with insulin: higher = more active ERK per ERK-YFP after insulin; replicate 1, z-score of dpERK under basal conditions: higher = more basal active ERK per ERK-YFP; replicate 1, z-score of ERK-YFP with insulin: higher = more YFP-tagged ERK signal

| Target gene | dsRNA | replicate 1, z-score of dpERK with insulin | replicate 2, z-score of dpERK with insulin | replicate 1, z-score of dpERK under basal conditions | replicate 1, z-score of ERK-YFP with insulin |
| --- | --- | --- | --- | --- | --- |
| Nprl3 | DRSC11044 | -0.38 | -0.52 | -1.32 | -0.13 |
| dpr17 | DRSC12885 | -0.02 | 0.12 | 0.69 | 0.28 |
| dpr17 | DRSC14957 | -3.24 | -2.32 | -3.03 | 1.07 |
| dpr17 | DRSC14958 | 0.21 | -0.25 | -0.45 | -0.08 |
| beta4GalNAcTB | DRSC14869 | -0.05 | -0.08 | 0.03 | 0.27 |
| CG15107 | DRSC06534 | 0.89 | 1.41 | 1.86 | 0.58 |
| CG15706 | DRSC06577 | -0.66 | 0.47 | 1.27 | -0.48 |
| Mcm6 | DRSC18680 | 0.28 | -0.11 | 0 | 0.14 |
| CG4483 | DRSC10426 | -1.55 | -0.38 | 0.44 | 1.21 |
| CG10505 | DRSC04075 | 0.28 | -0.29 | 1.43 | 0.84 |
| CG15615 | DRSC06568 | -1.83 | -2.47 | 0.26 | 1.14 |
| shu | DRSC04484 | -0.7 | 0.03 | 0.62 | 0.42 |
| retm | DRSC03252 | -0.03 | -0.14 | -0.03 | -0.12 |
| disco | DRSC20323 | -0.37 | 0.45 | -0.67 | -0.41 |
| CG13362 | DRSC17897 | 0.51 | 0.27 | 0.07 | 0.18 |
| fz3 | DRSC18779 | 0.6 | 0.45 | 1.19 | -0.51 |
| CG13050 | DRSC09931 | 0.4 | 1.94 | -0.44 | -0.52 |
| CG31462 (retired record) | DRSC14359 | 0.43 | 1.25 | 0.2 | 0.13 |
| Hph | DRSC12164 | -0.57 | -0.02 | -0.35 | -0.42 |
| Hph | DRSC12251 | -0.85 | 0.99 | -0.38 | 1.03 |
| Hph | DRSC21876 | 0.24 | 2.06 | 0.71 | -0.08 |
| trio | DRSC07928 | 0.64 | -0.17 | -0.01 | -0.47 |
| trio | DRSC08527 | -9.26 | -6.52 | -3.17 | -3.22 |
| trio | DRSC08740 | -0.37 | -1.28 | -1.07 | 0.68 |
| FipoQ | DRSC15413 | -1.03 | -0.32 | -0.17 | 0.64 |
| vanin-like | DRSC17440 | -0.48 | 0.15 | 0.06 | 0.08 |
| CecA2 | DRSC16604 | -0.13 | -0.09 | 2.55 | -0.41 |
| CG32536 + CG32537 | DRSC20074 | -0.17 | -1.68 | -0.27 | 0.83 |
| Arp6 | DRSC19326 | 0.15 | 0 | 0.52 | 0.2 |
| CG6142 | DRSC15976 | 0.03 | 0 | 0.12 | 0.41 |
| CG32454 | DRSC11652 | -0.29 | -0.3 | -0.15 | 0.04 |
| CG4928 | DRSC19342 | 0.18 | -0.22 | 0.04 | -0.15 |
| PolE2 | DRSC09737 | -0.8 | -1.74 | 0 | 0.75 |
| Mfap1 | DRSC08154 | 1.85 | 1.39 | -0.92 | -1.89 |
| Acyp2 | DRSC15336 | -0.45 | -1.74 | -0.48 | 0.44 |
| vilya | DRSC18588 | 0.07 | 0.37 | -0.27 | -0.2 |
| Spt6 | DRSC18836 | 3.32 | 2.78 | -0.65 | -2.8 |

An excerpt taken from the entries so far:
| Target gene | dsRNA | replicate 1, z-score of dpERK with insulin | replicate 2, z-score of dpERK with insulin | replicate 1, z-score of dpERK under basal conditions | replicate 1, z-score of ERK-YFP with insulin |
| --- | --- | --- | --- | --- | --- |
| Nprl3 | DRSC11044 | -0.38 | -0.52 | -1.32 | -0.13 |
| dpr17 | DRSC12885 | -0.02 | 0.12 | 0.69 | 0.28 |
| dpr17 | DRSC14957 | -3.24 | -2.32 | -3.03 | 1.07 |
| dpr17 | DRSC14958 | 0.21 | -0.25 | -0.45 | -0.08 |
| beta4GalNAcTB | DRSC14869 | -0.05 | -0.08 | 0.03 | 0.27 |
| CG15107 | DRSC06534 | 0.89 | 1.41 | 1.86 | 0.58 |
| CG15706 | DRSC06577 | -0.66 | 0.47 | 1.27 | -0.48 |
| Mcm6 | DRSC18680 | 0.28 | -0.11 | 0 | 0.14 |
| CG4483 | DRSC10426 | -1.55 | -0.38 | 0.44 | 1.21 |

The listing continues.
| Target gene | dsRNA | replicate 1, z-score of dpERK with insulin | replicate 2, z-score of dpERK with insulin | replicate 1, z-score of dpERK under basal conditions | replicate 1, z-score of ERK-YFP with insulin |
| --- | --- | --- | --- | --- | --- |
| PSMG1 | DRSC12297 | -0.74 | -0.36 | -0.25 | -0.21 |
| CG8312 | DRSC16406 | 1.14 | 0.24 | 0.96 | -1.21 |
| TRAM | DRSC18178 | -0.14 | 0.53 | 0 | 0.22 |
| TRAM | DRSC18651 | -0.17 | -0.98 | -0.56 | 0.19 |
| CG14932 | DRSC02414 | -1.99 | -0.25 | 0.14 | -0.66 |
| r-l | DRSC17042 | -0.58 | 0.52 | -0.76 | -0.01 |
| r-l | DRSC22784 | 0.76 | 0.71 | 0.98 | 0.42 |
| CG30291 | DRSC03842 | -1.29 | 0.02 | -0.74 | -0.46 |
| yellow-e2 | DRSC15169 | 0.15 | 0.43 | 1.32 | 0.15 |
| Eip75B | DRSC09526 | 0.8 | -0.05 | -0.18 | -0.33 |
| Eip75B | DRSC11161 | -2.43 | -2.46 | -2.08 | -1.97 |
| CG1161 | DRSC12180 | -7.33 | -5.92 | -4.4 | 0.52 |
| CG4707 | DRSC04483 | -0.81 | -0.27 | -0.23 | 0.94 |
| CG11211 | DRSC04851 | 0.5 | 0.28 | 0.15 | -0.01 |
| Ilp7 | DRSC17895 | 0.35 | 0.4 | -0.19 | 0.77 |
| CG12209 | DRSC06119 | 0.14 | 1.14 | 0.07 | -0.21 |
| CG18622 | DRSC15360 | -0.09 | 0.39 | -0.31 | 1.48 |
| Cyp28a5 | DRSC03297 | 0.95 | 0.33 | 1.55 | 0.83 |
| Tif-IA | DRSC03717 | 0.06 | 0.37 | -0.72 | 0.59 |
| Tif-IA | DRSC03726 | -0.05 | 0.19 | -0.07 | 0.86 |
